Assay results: patent publication US20230332232A1, “COMPOSITIONS AND METHODS FOR DIAGNOSING AND TREATING A DYSTONIA” (Duke University, priority 2020, published 2023)

Assays:
[1] = system: hiPSC-derived neural progenitor cells (NPCs) EVs; assay: Parallel reaction monitoring (PRM) targeted proteomics of EVs from hiPSC-derived neural progenitor cells; format: cell-based, human
MEF EVs [2] = assay: Original untargeted proteomics MEF discovery dataset (average peptide intensity); format: cell-based, mouse; details: peptide of the PRM panel; original MEF EV proteomics dataset
MEF EVs [3] = assay: Untargeted discovery proteomics of MEF EVs (MEF Discovery Dataset), average peptide intensity; format: cell-based, mouse; details: peptide of the PRM panel in the original proteomics dataset
[4] = EVs from human iPSC-derived NPC pool, present/absent

Row | Substance | Detected in NPC Pool ([1]; EVs of hiPSC-derived NPC pool) | Avg. Intensity in MEF Discovery Dataset (MEF EVs [2]) | Avg. Intensity in MEF Discovery Dataset (MEF EVs [3]) | Detected in NPC Pool [1, 4]
1 | VSFVKPTYR | absent | 2.96E−05 | – | –
2 | LLTSGYLQR | absent | 5.68E−05 | – | –
3 | VAHSDKPGSTSAVSFR | – | – | 1.11E−05 | absent
4 | NFLSGALTGLTR | present | 9.45E−05 | – | –
5 | ELPDVLER | absent | 1.05E−06 | – | –
6 | IVLSSMEK | absent | 2.43E−05 | – | –
7 | GAFQQAAQILR | absent | 4.72E−05 | – | –
8 | AETEEGPDVLR | absent | 7.94E−05 | – | –
9 | VIPSPFK | absent | 2.78E−05 | – | –
10 | ICLDILK | – | – | 1.25E−05 | present
11 | VAVGELTDEDVK | absent | 5.72E−05 | – | –
12 | VTFNSALAQK | absent | 2.17E−05 | – | –
13 | TNEAQAIETAR | – | – | 5.41E−05 | present
14 | GFAFVYFENVDDAK | present | 1.11E−05 | – | –
15 | AINFNEGYAK | absent | 3.29E−05 | – | –
16 | VAVVNQIAR | absent | 7.81E−05 | – | –
17 | FAEALITFYSDNSVLHR | absent | 2.51E−05 | – | –
18 | SPQLEDEAK | absent | 1.96E−05 | – | –

Row | Substance | Detected in NPC Pool ([1]; EVs of hiPSC-derived NPC pool) | Avg. Intensity in MEF Discovery Dataset (MEF EVs [2]) | Avg. Intensity in MEF Discovery Dataset (MEF EVs [3]) | Detected in NPC Pool [1, 4]
19 | LTAELQDTK | absent | 1.75E−05 | – | –
20 | QDVYDLLK | absent | – | – | –
21 | VAIVTFSSK | absent | 2.97E−05 | – | –
22 | VVFTPSICK | present | 2.27E−06 | – | –
23 | LADALQELR | absent | 7.33E−05 | – | –
24 | NANNGNLLLR | absent | 3.61E−05 | – | –
25 | IISNLFLGR | absent | 2.74E−05 | – | –
26 | LITAVVMK | absent | 6.26E−05 | – | –
27 | FASSPLR | absent | 5.50E−05 | – | –
28 | RPFDPNDRCYECGEK | absent | 2.42E−05 | – | –
29 | DVAYQYVK | absent | 1.09E−05 | – | –
30 | TMYLEDR | present | 4.40E−05 | – | –
31 | NLPFTPILASVNR | absent | 4.19E−05 | – | –
32 | ALLNVVDSAR | absent | 2.03E−05 | – | –
33 | FAAGSVVSFK | absent | 3.29E−05 | – | –
34 | VGRPEWWMDYQK | absent | 1.47E−05 | – | –
35 | AGLSQSLFER | – | – | 3.02E−06 | absent
36 | TAEEVAALIR | absent | 9.76E−05 | – | –
